# PubChem BioAssay AID1259405, NCATS, 2018
# Test: 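Knock-downs that lift recombinant protein yield in hamster ovary cells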 (primary screen)
# System: Chinese hamster CHO-K1 ovary cells with stable secreted eGFP expression
# Reagents: single siRNA against mouse genes, 0.8 pmol siRNA per well (2 µl of 400 nM stock)
# Timing: 3 days
# Read-out: 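Per-well intracellular GFP measured by laser scanning cytometry, plus viability from ATP luminescence, each relative to plate median of non-targeting control wells, in %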
# Scale: GFP, % of control: higher = more GFP per well, higher productivity; viability (ATP), % of control: higher = more viable cells (more ATP)
# Active means: 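Called active when intracellular GFP, relative to negative control, is at or above 120%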
# This is a random part of about 50,000 reagents tested. About 4,000 of all reagents (8%) were called active. 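Mouse siRNA library applied to hamster cells; one well for each siRNA.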 The numbers tell different reagents against one gene apart.
Target gene,reagent,"GFP, % of control","viability (ATP), % of control",activity call
Smarca5,1,75.6,69.3,inactive
Smarca5,2,86,88.3,inactive
Smarca5,3,87.1,55.2,inactive
Aaas,1,72.7,63.6,inactive
Aaas,2,68.7,53.9,inactive
Aaas,3,85.8,90.3,inactive
Brinp1,1,70.3,81.5,inactive
Brinp1,2,159,110,active
Brinp1,3,140,78.9,active
Nup107,1,83.8,88.7,inactive
Nup107,2,62,36.5,inactive
Nup107,3,44.6,61.3,inactive
Rttn,1,144,86.2,active
Rttn,2,86.9,89.4,inactive
Rttn,3,79,69,inactive
Mettl26,1,66,94,inactive
Mettl26,2,80.1,79.1,inactive
Mettl26,3,188,81.5,active
Or52r1b,1,66.6,67.1,inactive
Or52r1b,2,94.3,40.3,inactive
Or52r1b,3,136,85.3,active
Rhof,1,94.5,74.3,inactive
Rhof,2,122,84.6,active
Rhof,3,66.5,62.2,inactive
Gprasp3,1,36.6,35.4,inactive
Gprasp3,2,47.6,71.1,inactive
Gprasp3,3,68.8,75.6,inactive
Prmt2,1,56.2,65,inactive
Prmt2,2,96.5,123,inactive
Prmt2,3,91.9,110,inactive
Kif2c,1,74.1,77.5,inactive
Kif2c,2,72.1,72,inactive
Acat1,1,74.8,73.9,inactive
Acat1,2,133,139,active
Acat1,3,88.2,101,inactive
Ddx25,1,103,71,inactive
Ddx25,2,74.7,48,inactive
Ddx25,3,79.8,59.1,inactive
Zfp397,1,52.9,46.7,inactive
Zfp397,2,66.6,73.3,inactive
Zfp397,3,47.3,84.6,inactive
Tmem47,1,54.4,66.5,inactive
Tmem47,2,57.9,69.9,inactive
Tmem47,3,78.4,101,inactive
Vstm2l,1,34.9,41.5,inactive
Vstm2l,2,72.1,71.5,inactive
Vstm2l,3,47.7,75.2,inactive
Clybl,1,93.7,100,inactive
Clybl,2,75.2,43.1,inactive
Clybl,3,84.4,90.1,inactive
Drd4,1,107,57.2,inactive
Drd4,2,77.1,56.7,inactive
Drd4,3,86.8,74.8,inactive
Mcf2l,1,71.1,79.5,inactive
Mcf2l,2,144,85.2,active
Mcf2l,3,62.3,80.3,inactive
Or7g33,1,111,92.3,inactive
Or7g33,2,118,61,inactive
Or7g33,3,92.2,94.3,inactive
Noct,1,41.8,46.9,inactive
Noct,2,129,91.9,active
Noct,3,117,111,inactive
S100a3,1,94.6,124,inactive
S100a3,2,93.3,71.1,inactive
Med4,1,62.2,54.8,inactive
Med4,2,60.7,62.6,inactive
Med4,3,73.7,59,inactive
Zfp959,1,53.9,78.7,inactive
Zfp959,2,48.2,49.1,inactive
Zfp959,3,47.6,73.2,inactive
Btd,1,154,103,active
Btd,2,131,91.9,active
Btd,3,85,79,inactive
Rnf216,1,103,73.7,inactive
Rnf216,2,82,73.8,inactive
Rnf216,3,40.9,65,inactive
H3f3b,1,106,110,inactive
H3f3b,2,116,108,inactive
H3f3b,3,33.4,52.4,inactive
Akr1e1,1,93.7,71.1,inactive
Akr1e1,2,71.8,59.6,inactive
Akr1e1,3,96.5,61.1,inactive
Il6ra,1,101,91.7,inactive
Il6ra,2,90,64.9,inactive
Il6ra,3,55.9,51.7,inactive
